Laboratory results taken from the supplement of paper PMC10849652.
Some of the results follow.

Protein sequences, listed by entry. Tags and fused reporters are not part of them. Lines headed by an entry give the natural chain unless they say otherwise; changes in a name come on top.
UniProt Q32MZ4: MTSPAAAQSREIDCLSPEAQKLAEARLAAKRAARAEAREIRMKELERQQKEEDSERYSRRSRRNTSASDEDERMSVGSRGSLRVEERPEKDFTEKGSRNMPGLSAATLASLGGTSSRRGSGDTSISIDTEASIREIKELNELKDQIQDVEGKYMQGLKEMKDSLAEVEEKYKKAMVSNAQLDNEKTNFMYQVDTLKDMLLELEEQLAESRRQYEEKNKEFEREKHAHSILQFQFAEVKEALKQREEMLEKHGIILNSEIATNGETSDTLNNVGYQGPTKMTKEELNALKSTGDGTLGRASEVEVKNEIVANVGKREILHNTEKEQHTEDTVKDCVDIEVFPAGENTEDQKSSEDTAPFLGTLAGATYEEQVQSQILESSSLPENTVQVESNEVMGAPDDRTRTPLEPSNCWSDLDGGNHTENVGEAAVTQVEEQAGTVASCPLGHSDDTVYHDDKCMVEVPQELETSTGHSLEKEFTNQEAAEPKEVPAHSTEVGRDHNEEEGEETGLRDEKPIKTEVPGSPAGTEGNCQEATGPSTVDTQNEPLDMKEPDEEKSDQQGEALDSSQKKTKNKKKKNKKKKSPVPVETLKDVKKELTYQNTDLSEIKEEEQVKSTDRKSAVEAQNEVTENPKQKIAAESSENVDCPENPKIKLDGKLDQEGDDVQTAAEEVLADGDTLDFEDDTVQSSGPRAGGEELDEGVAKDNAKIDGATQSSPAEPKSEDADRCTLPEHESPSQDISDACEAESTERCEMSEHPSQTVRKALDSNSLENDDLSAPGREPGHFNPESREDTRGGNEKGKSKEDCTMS
UniProt P61968: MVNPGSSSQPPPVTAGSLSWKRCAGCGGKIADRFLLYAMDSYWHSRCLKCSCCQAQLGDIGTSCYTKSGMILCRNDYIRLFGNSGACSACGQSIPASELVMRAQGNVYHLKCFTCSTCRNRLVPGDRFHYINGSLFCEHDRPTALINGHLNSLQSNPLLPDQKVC
UniProt P53671: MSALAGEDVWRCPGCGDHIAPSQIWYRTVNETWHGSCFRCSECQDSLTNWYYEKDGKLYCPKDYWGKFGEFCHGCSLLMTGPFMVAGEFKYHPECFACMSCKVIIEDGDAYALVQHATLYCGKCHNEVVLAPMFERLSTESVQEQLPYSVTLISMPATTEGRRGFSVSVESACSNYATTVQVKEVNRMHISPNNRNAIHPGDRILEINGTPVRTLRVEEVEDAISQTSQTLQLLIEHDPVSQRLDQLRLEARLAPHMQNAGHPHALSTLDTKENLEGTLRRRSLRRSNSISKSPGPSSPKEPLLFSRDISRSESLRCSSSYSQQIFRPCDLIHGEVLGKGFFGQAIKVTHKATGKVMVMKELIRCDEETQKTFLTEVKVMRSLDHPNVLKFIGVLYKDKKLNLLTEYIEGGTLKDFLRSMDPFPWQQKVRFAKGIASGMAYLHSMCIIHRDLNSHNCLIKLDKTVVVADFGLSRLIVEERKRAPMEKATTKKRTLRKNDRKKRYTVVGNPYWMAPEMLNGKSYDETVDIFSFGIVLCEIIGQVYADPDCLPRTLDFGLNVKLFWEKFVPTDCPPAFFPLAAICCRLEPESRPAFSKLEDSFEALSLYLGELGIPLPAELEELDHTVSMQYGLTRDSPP
UniProt Q9NT99: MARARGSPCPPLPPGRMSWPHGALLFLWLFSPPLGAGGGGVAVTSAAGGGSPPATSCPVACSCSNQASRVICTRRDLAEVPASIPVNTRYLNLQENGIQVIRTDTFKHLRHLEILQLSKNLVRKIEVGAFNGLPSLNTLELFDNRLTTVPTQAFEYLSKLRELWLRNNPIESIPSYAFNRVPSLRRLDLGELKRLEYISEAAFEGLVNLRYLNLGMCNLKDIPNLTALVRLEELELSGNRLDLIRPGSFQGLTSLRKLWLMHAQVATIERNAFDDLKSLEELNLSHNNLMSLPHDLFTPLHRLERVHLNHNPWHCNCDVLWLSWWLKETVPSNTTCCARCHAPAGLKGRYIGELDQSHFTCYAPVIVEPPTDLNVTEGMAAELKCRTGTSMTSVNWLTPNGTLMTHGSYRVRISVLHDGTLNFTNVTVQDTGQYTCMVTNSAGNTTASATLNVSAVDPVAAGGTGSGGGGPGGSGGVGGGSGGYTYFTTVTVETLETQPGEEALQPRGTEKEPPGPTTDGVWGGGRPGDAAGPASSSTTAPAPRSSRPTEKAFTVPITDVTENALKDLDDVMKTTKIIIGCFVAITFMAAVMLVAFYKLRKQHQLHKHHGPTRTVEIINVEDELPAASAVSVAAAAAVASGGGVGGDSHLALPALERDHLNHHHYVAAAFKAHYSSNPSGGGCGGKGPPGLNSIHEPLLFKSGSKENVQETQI
UniProt Q96JM4: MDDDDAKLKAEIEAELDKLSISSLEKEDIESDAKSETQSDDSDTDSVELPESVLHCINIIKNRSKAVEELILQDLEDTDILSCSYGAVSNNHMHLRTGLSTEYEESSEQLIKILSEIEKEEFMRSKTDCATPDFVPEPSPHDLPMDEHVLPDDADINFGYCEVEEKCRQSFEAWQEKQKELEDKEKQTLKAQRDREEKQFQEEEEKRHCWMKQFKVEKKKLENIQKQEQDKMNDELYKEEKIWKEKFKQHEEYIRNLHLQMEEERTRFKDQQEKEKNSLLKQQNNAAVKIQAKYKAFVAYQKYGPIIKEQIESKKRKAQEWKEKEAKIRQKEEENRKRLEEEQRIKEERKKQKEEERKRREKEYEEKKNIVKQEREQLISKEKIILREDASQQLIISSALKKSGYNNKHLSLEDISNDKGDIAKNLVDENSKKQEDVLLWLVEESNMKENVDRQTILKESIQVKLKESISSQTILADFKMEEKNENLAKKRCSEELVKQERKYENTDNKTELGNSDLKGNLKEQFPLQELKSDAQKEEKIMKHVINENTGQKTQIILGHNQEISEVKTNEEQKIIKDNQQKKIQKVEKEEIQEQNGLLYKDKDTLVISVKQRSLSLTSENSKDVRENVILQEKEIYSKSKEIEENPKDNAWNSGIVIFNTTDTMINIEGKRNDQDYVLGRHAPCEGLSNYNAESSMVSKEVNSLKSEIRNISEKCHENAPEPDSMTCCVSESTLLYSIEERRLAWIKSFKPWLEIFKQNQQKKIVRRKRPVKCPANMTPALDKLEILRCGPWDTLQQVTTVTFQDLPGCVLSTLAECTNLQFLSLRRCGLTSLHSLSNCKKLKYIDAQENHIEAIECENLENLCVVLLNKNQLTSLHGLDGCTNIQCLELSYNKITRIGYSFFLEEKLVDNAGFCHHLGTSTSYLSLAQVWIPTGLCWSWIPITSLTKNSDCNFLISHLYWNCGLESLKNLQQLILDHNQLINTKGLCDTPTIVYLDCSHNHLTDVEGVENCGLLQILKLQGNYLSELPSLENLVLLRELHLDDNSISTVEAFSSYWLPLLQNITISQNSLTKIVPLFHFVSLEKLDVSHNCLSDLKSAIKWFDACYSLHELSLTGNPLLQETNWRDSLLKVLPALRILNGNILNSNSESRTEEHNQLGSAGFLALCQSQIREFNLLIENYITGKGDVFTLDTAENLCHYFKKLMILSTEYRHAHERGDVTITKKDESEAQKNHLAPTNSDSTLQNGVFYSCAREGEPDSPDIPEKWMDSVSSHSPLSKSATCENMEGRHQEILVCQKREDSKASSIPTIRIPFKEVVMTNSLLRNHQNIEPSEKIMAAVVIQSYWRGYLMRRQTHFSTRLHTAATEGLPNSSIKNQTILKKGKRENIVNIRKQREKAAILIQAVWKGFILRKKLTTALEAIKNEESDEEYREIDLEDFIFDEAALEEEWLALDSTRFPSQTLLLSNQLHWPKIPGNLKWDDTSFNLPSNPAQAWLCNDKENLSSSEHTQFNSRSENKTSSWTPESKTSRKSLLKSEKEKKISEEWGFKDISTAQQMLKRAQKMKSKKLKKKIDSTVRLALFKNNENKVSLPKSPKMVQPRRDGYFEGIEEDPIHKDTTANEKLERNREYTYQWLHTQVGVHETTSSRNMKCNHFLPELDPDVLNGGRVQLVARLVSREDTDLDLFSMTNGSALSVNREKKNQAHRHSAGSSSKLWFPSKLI
UniProt Q7L5N7: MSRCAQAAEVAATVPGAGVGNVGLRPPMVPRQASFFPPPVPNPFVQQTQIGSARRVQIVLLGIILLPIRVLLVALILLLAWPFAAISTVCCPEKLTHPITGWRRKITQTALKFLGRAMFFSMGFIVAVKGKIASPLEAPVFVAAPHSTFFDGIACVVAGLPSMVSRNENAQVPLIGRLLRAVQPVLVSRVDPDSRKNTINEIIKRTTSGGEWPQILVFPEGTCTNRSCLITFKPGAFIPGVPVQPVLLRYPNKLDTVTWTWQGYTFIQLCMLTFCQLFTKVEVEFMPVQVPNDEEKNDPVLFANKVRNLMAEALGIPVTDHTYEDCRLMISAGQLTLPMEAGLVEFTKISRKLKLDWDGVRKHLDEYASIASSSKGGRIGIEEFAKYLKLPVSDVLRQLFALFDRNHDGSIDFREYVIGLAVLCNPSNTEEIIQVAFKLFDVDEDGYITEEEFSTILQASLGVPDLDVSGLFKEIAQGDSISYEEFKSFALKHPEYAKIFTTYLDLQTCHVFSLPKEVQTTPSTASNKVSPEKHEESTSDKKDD
UniProt P25791: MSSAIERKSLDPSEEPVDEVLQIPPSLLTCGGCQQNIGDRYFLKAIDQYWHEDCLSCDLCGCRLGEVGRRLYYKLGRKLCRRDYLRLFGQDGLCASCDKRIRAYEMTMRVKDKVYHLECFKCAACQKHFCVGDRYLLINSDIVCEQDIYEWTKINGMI
UniProt Q9Y4Y9: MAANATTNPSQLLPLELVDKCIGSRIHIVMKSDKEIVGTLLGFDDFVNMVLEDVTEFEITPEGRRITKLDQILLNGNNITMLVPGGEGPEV
UniProt Q96NW7: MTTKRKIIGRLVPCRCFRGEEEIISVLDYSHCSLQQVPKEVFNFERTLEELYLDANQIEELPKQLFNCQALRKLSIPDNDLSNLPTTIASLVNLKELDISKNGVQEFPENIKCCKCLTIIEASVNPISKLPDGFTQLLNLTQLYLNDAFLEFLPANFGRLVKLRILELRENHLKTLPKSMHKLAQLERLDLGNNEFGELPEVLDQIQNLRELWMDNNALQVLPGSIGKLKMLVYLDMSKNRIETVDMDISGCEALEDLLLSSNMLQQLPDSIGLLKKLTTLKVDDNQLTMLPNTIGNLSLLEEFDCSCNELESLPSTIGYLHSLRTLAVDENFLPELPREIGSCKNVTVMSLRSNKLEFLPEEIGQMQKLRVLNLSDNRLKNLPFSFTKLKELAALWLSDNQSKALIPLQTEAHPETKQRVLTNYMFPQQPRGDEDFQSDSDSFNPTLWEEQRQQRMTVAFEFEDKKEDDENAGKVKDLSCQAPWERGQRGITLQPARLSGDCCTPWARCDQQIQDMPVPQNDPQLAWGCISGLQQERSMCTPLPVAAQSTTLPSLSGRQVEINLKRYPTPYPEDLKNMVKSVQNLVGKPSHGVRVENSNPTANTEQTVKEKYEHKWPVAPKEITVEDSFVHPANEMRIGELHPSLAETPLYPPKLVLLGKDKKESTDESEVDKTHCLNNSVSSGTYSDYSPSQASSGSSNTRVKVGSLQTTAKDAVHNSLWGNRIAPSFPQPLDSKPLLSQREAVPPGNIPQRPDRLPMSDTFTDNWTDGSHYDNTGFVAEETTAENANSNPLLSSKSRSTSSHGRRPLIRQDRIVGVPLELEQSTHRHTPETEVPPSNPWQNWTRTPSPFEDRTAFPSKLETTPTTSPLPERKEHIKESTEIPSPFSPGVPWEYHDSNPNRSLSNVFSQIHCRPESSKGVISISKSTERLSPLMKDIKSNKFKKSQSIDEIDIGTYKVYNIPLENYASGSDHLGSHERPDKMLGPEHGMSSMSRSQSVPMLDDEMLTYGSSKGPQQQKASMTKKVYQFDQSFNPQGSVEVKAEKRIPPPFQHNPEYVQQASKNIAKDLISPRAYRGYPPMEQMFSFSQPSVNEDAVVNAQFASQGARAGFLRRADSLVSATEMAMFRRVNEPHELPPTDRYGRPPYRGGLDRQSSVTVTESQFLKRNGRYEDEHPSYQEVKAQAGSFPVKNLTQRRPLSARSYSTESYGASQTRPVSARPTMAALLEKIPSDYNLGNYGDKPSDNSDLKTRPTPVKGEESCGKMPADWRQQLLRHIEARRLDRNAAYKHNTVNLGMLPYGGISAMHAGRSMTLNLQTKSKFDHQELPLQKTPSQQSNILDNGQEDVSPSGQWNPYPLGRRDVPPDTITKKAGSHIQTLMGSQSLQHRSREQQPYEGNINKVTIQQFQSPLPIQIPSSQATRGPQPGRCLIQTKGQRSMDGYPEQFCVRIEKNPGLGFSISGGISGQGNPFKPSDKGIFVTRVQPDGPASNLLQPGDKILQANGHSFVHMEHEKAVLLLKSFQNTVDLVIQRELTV

Columns and labels:
Assay in all cases: log2 fold change, soluble protein after heating vs DMSO (PISA); higher = thermal stabilisation; K562 lysate, 10 uM; active = over 0.2 and 3.5 SD of the protein, either way, in both replicates (recomputed)
vemurafenib = compound: CCCS(=O)(=O)Nc1ccc(F)c(C(=O)c2c[nH]c3ncc(-c4ccc(Cl)cc4)cc23)c1F [vemurafenib]
Summary of the method: (§1)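 K562 pellets were dounce-homogenised in PBS pH 7.4 containing 1 mM MgCl2, and the crude extract, at 1 mg/mL protein, was exposed to 10 μM compound for 30 min. Aliquots were heated for 3 min across 48°C-58°C, pooled, brought to 0.5% NP-40 at 4°C and spun at 21,000xg for 90 min, with the supernatant taken as soluble protein. TMTpro 16plex LC-MS/MS with equalised channel sums quantified that protein. Values are log-two fold changes in thermal stability relative to solvent controls, taken from duplicates.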

[1] = compound: CCCS(=O)(=O)Nc1ccc(F)c(C(=O)c2c[nH]c3ncc(Cl)cc23)c1F
Summary of the method: as §1

barasertib = compound: CCN(CCCOc1ccc2c(Nc3cc(CC(=O)Nc4cccc(F)c4)[nH]n3)ncnc2c1)CCOP(=O)(O)O [barasertib]
Summary of the method: as §1

[2] = compound: CC[C@@H]1C(=O)N(C)c2cnc(Nc3ccc(C(=O)NC4CCN(C)CC4)cc3OC)nc2N1C1CCCC1
Summary of the method: as §1

volasertib = compound: CC[C@@H]1C(=O)N(C)c2cnc(Nc3ccc(C(=O)N[C@H]4CC[C@H](N5CCN(CC6CC6)CC5)CC4)cc3OC)nc2N1C(C)C [volasertib]
Summary of the method: as §1

[3] = compound: CCn1c(C(=O)N(C2CC2)C2CC2)cc2c3c(ncn3C)c(Nc3cc(C)n(C)n3)nc21
Summary of the method: as §1

[4] = compound: CCn1cc(-c2ccnc3[nH]c(-c4cccc(CN(C)C)c4)cc23)c(-c2ccc(NC(=O)N(C)C)cc2)n1
Summary of the method: as §1

[5] = compound: CN1CCC(CNc2ccc3ncc(-c4cccc(OC(F)(F)F)c4)n3n2)CC1
Summary of the method: as §1

saracatinib = compound: CN1CCN(CCOc2cc(OC3CCOCC3)c3c(Nc4c(Cl)ccc5c4OCO5)ncnc3c2)CC1 [saracatinib]
Summary of the method: as §1

sotrastaurin = compound: CN1CCN(c2nc(C3=C(c4c[nH]c5ccccc45)C(=O)NC3=O)c3ccccc3n2)CC1 [sotrastaurin]
Summary of the method: as §1

alvocidib = compound: CN1CC[C@H](c2c(O)cc(O)c3c(=O)cc(-c4ccccc4Cl)oc23)[C@H](O)C1 [alvocidib]
Summary of the method: as §1

Tubastatin A = compound: CN1CCc2c(c3ccccc3n2Cc2ccc(C(=O)NO)cc2)C1 [Tubastatin A]
Summary of the method: as §1

[6] = compound: CNC(=O)C1=CC=CC=C1NC2=NC(=NC=C2Cl)NC3=C(C=C(C=C3)N4CCOCC4)OC
Summary of the method: as §1

defactinib = compound: CNC(=O)c1ccc(Nc2ncc(C(F)(F)F)c(NCc3nccnc3N(C)S(C)(=O)=O)n2)cc1 [defactinib]
Summary of the method: as §1

[7] = compound: CNc1nc(-c2ccc3c(N)n[nH]c3c2)cc(N2C[C@@H](C(=O)NC3CCCCC3)CC[C@H]2C)n1
Summary of the method: as §1

encorafenib = compound: COC(=O)N[C@@H](C)CNc1nccc(-c2cn(C(C)C)nc2-c2cc(Cl)cc(NS(C)(=O)=O)c2F)n1 [encorafenib]
Summary of the method: as §1

[8] = compound: COC(=O)[C@H](CCSC)NC(=O)C1=C(C=C(C=C1)NC[C@H](CS)N)C2=CC=CC=C2
Summary of the method: as §1

alisertib = compound: COc1cc(Nc2ncc3c(n2)-c2ccc(Cl)cc2C(c2c(F)cccc2OC)=NC3)ccc1C(=O)O [alisertib]
Summary of the method: as §1

[9] = compound: COc1cc2nc(-c3cc(F)ccc3O)nc(N[C@@H]3CNC[C@H]3C(C)(C)O)c2cc1OC
Summary of the method: as §1

gefitinib = compound: COc1cc2ncnc(Nc3ccc(F)c(Cl)c3)c2cc1OCCCN1CCOCC1 [gefitinib]
Summary of the method: as §1

Row | Target | log2 fold change (vemurafenib) | log2 fold change [1] | log2 fold change (barasertib) | log2 fold change [2] | log2 fold change (volasertib) | log2 fold change [3] | log2 fold change [4] | log2 fold change [5] | log2 fold change (saracatinib) | log2 fold change (sotrastaurin) | log2 fold change (alvocidib) | log2 fold change (Tubastatin A) | log2 fold change [6] | log2 fold change (defactinib) | log2 fold change [7] | log2 fold change (encorafenib) | log2 fold change [8] | log2 fold change (alisertib) | log2 fold change [9] | log2 fold change (gefitinib)
1 | LRRFIP1 (UniProt Q32MZ4) | inactive: 0.027 | inactive: 0.006 | inactive: -0.017 | inactive: 0.055 | inactive: 0.022 | inactive: -0.023 | inactive: -0.006 | inactive: 0.045 | inactive: 0.018 | inactive: -0.001 | inactive: -0.024 | inactive: 0.039 | inactive: -0.001 | inactive: -0.021 | inactive: 0.02 | inactive: 0.014 | inactive: -0.035 | inactive: -0.007 | inactive: 0.006 | inactive: 0.013
2 | LMO4 (UniProt P61968) | inactive: 0.027 | inactive: -0.04 |  |  | inactive: -0.113 | inactive: -0.139 |  |  | inactive: 0.159 | inactive: -0.156 |  | inactive: 0.018 | inactive: -0.166 | inactive: 0.03 | inactive: -0.413 |  |  |  | inactive: 0.111 | 
3 | LENG1 (UniProt Q96BZ8) | inactive: 0.025 | inactive: -0.022 | inactive: -0.038 | inactive: 0.008 | inactive: -0.012 | inactive: 0.04 | inactive: -0.055 | inactive: 0.069 | inactive: -0.041 | inactive: -0.023 | inactive: -0.062 | inactive: 0.062 | inactive: -0.098 | inactive: -0.029 | inactive: 0.041 | inactive: 0.032 | inactive: 0.01 | inactive: 0.008 | inactive: -0.033 | inactive: 0.098
4 | LRP1 (UniProt Q07954) | inactive: 0.15 | inactive: -0.072 |  | inactive: -0.163 | inactive: 0.004 |  |  |  |  | inactive: -0.043 |  |  |  | inactive: -0.108 |  | inactive: -0.091 | inactive: 0.043 |  | inactive: 0.034 | 
5 | LIMK2 isoform 3 (UniProt P53671) | inactive: 0.031 | inactive: 0.046 | inactive: -0.062 | inactive: -0.173 | inactive: -0.002 | inactive: -0.046 | active: 0.963 | inactive: 0.023 | inactive: -0.017 | inactive: -0.05 | inactive: -0.002 | inactive: 0.02 | inactive: 0.068 | inactive: -0.026 | inactive: 0.102 | inactive: 0.204 | inactive: -0.189 | inactive: 0.031 | inactive: 0.033 | inactive: -0.141
6 | LRRC4B (UniProt Q9NT99) | inactive: 0.041 | inactive: -0.008 | inactive: 0.034 | inactive: 0.041 | inactive: -0.074 | inactive: -0.106 | inactive: 0.126 | inactive: -0.033 | inactive: 0.07 | inactive: 0.052 | inactive: 0.039 | inactive: -0.049 | inactive: -0.074 | inactive: 0.04 | inactive: -0.294 | inactive: 0.027 | inactive: -0.015 | inactive: 0.019 | inactive: 0 | inactive: 0.082
7 | LDHC (UniProt P07864) | inactive: 0.026 | inactive: -0.013 | inactive: 0.019 | inactive: -0.016 | inactive: -0.052 | inactive: 0.009 |  |  | inactive: -0.004 |  |  | inactive: 0.085 | inactive: 0.115 | inactive: 0.02 | inactive: 0.054 | inactive: -0.009 | inactive: -0.028 | inactive: 0.018 | inactive: 0.025 | inactive: -0.195
8 | LRRCC1 (UniProt Q9C099) | inactive: 0.114 | inactive: -0.02 |  | inactive: 0.274 | inactive: 0.009 | inactive: -0.239 |  |  | inactive: -0.064 | inactive: -0.04 |  | inactive: 0.039 | inactive: 0.037 | inactive: 0.012 | inactive: 0.168 | inactive: -0.057 | inactive: 0.092 | inactive: 0.009 | inactive: 0.052 | inactive: 0.23
9 | LRRIQ1 (UniProt Q96JM4) | inactive: -0.023 | inactive: 0.02 |  |  | inactive: 0.015 | inactive: -0.015 |  |  |  | inactive: 0.027 |  | inactive: -0.096 |  | inactive: -0.031 |  |  |  |  | inactive: -0.037 | 
10 | LCP2 (UniProt Q13094) | inactive: 0.002 | inactive: -0.005 | inactive: 0.038 | inactive: 0.081 | inactive: -0.022 | inactive: 0.018 | inactive: 0.007 | inactive: -0.045 | inactive: 0.011 | inactive: 0.013 | inactive: 0.016 | inactive: -0.016 | inactive: 0.025 | inactive: 0.018 | inactive: -0.036 | inactive: -0.019 | inactive: -0.072 | inactive: -0.034 | inactive: -0.007 | inactive: 0.029
11 | LRP8 (UniProt Q14114) | inactive: 0.135 | inactive: 0.175 | inactive: 0.099 | inactive: 0.107 | inactive: -0.021 | inactive: 0.012 | inactive: -0.056 | inactive: 0.006 |  | inactive: 0.042 | inactive: -0.133 | inactive: 0.046 |  | inactive: -0.069 |  | inactive: -0.028 | inactive: -0.197 |  | inactive: -0.009 | 
12 | LPCAT2 (UniProt Q7L5N7) | inactive: -0.081 |  | inactive: 0.024 | inactive: 0 |  |  |  |  | inactive: 0.138 | inactive: 0.022 |  |  |  | inactive: -0.088 | inactive: -0.11 | inactive: -0.008 | inactive: 0.063 | inactive: -0.302 |  | inactive: 0.075
13 | LIMK1 (UniProt P53667) | inactive: 0.234 | inactive: 0.179 | inactive: 0.007 | inactive: -0.195 | inactive: -0.215 | inactive: 0.108 | inactive: -0.104 | inactive: -0.028 | inactive: -0.022 | inactive: -0.15 | inactive: -0.135 | inactive: 0 |  | inactive: -0.053 | inactive: -0.085 | active: 0.489 | inactive: -0.086 | inactive: -0.261 | inactive: -0.203 | inactive: 0.106
14 | LMO2 isoform 3 (UniProt P25791) | inactive: 0.009 | inactive: 0.148 | inactive: 0.007 | inactive: -0.59 | inactive: 0.031 | inactive: -0.023 | inactive: -0.053 | inactive: 0.145 | inactive: 0.004 | inactive: -0.029 | inactive: 0.067 | inactive: -0.029 | inactive: 0.048 | inactive: 0.01 | inactive: 0.066 | inactive: -0.102 | inactive: 0.22 | inactive: 0.016 | inactive: -0.059 | inactive: 0.012
15 | LRFN4 (UniProt Q6PJG9) | inactive: 0.054 | inactive: 0.084 |  | inactive: 0.004 | inactive: 0.068 |  | inactive: 0.155 | inactive: 0.165 | inactive: -0.065 | inactive: -0.109 | inactive: 0.064 |  | inactive: 0.098 | inactive: 0.027 | inactive: -0.141 | inactive: -0.025 | inactive: -0.151 |  | inactive: 0.049 | 
16 | LSM5 (UniProt Q9Y4Y9) | inactive: 0.13 | inactive: 0.017 | inactive: 0.019 | inactive: 0.19 | inactive: -0.062 | inactive: 0.037 | inactive: 0.146 | inactive: 0.027 | inactive: 0.11 | inactive: 0.076 | inactive: 0.2 | inactive: -0.059 | inactive: -0.027 | inactive: 0.002 | inactive: -0.251 | inactive: -0.068 | inactive: -0.087 |  | inactive: 0.068 | 
17 | LRRC41 (UniProt Q15345) | inactive: 0.04 | inactive: 0.176 | inactive: -0.033 | inactive: -0.08 | inactive: 0.115 | inactive: -0.036 |  |  | inactive: 0.027 | inactive: 0.105 |  | inactive: -0.02 | inactive: -0.058 | inactive: 0.089 | inactive: 0.033 | inactive: 0.024 | inactive: -0.059 | inactive: -0.18 | inactive: -0.005 | inactive: 0.035
18 | LMF2 (UniProt Q9BU23) | inactive: -0.039 |  | inactive: 0.078 | inactive: -0.083 |  |  | inactive: -0.196 | inactive: 0.133 | inactive: 0.046 | inactive: -0.017 | inactive: -0.087 |  | inactive: 0.06 | inactive: 0.01 | inactive: 0.125 | inactive: 0.033 | inactive: -0.088 | inactive: 0.041 |  | inactive: 0.117
19 | LRRC7 (UniProt Q96NW7) | inactive: 0.112 | inactive: -0.024 | inactive: 0.062 | inactive: 0.056 | inactive: 0.047 | inactive: -0.008 | inactive: -0.033 | inactive: -0.043 | inactive: -0.044 | inactive: -0.012 | inactive: 0.069 | inactive: 0.079 |  | inactive: 0.251 | inactive: 0.058 | inactive: -0.103 | inactive: 0.026 |  | inactive: -0.016 | 

Reformatted tab-delimited: part of the list above
Row	Target	log2 fold change (vemurafenib)	log2 fold change [1]	log2 fold change (barasertib)	log2 fold change [2]	log2 fold change (volasertib)	log2 fold change [3]	log2 fold change [4]	log2 fold change [5]	log2 fold change (saracatinib)	log2 fold change (sotrastaurin)	log2 fold change (alvocidib)	log2 fold change (Tubastatin A)	log2 fold change [6]	log2 fold change (defactinib)	log2 fold change [7]	log2 fold change (encorafenib)	log2 fold change [8]	log2 fold change (alisertib)	log2 fold change [9]	log2 fold change (gefitinib)
13	LIMK1 (UniProt P53667)	inactive: 0.234	inactive: 0.179	inactive: 0.007	inactive: -0.195	inactive: -0.215	inactive: 0.108	inactive: -0.104	inactive: -0.028	inactive: -0.022	inactive: -0.15	inactive: -0.135	inactive: 0		inactive: -0.053	inactive: -0.085	active: 0.489	inactive: -0.086	inactive: -0.261	inactive: -0.203	inactive: 0.106
14	LMO2 isoform 3 (UniProt P25791)	inactive: 0.009	inactive: 0.148	inactive: 0.007	inactive: -0.59	inactive: 0.031	inactive: -0.023	inactive: -0.053	inactive: 0.145	inactive: 0.004	inactive: -0.029	inactive: 0.067	inactive: -0.029	inactive: 0.048	inactive: 0.01	inactive: 0.066	inactive: -0.102	inactive: 0.22	inactive: 0.016	inactive: -0.059	inactive: 0.012
